Values from PubChem BioAssay AID602196 (INSERM, 2012)
In all, the deposit lists about 23,000 reagents; shown is an unselected part. 455 of them (2%) were called active. 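Active includes both protection and sensitisation; some change values fall well beyond the stated -50 to +50 range.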 Reagents against one gene are numbered here. Further read-outs or replicates are left out here. No sequences are given here. Not stated in the record: the amount of reagent.

- Test: 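Modifiers of cisplatin sensitivity in A549 cells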
- Cells: human A549 lung cancer cells
- Reagents: siRNA pair against human genes
- Duration: 48 h transfection before cisplatin; time from cisplatin to read-out not stated
- Treatment: cisplatin at a dose killing half of control-siRNA cells; exact dose and duration not given
- Read-out: 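Shift in cisplatin death relative to control siRNA, from -50 (all cells die) to +50 (no cells die); siRNAs harmful on their own scored 0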
- Scale: two-siRNA summed score (-2 to +2): higher = both siRNAs protect from cisplatin killing; -2 means both sensitise; mean protection from cisplatin (shift in death): higher = protection from cisplatin killing
- Hit rule: 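Each siRNA scores 0 if harmful alone by LDH or WST-1, otherwise +1 if it reduces and -1 if it increases cisplatin killing; a gene is active when both siRNAs agree (sum +2 or -2)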
- Meaning of the calls: active = both siRNAs shift cisplatin killing the same way; inactive = no consistent shift, or siRNA harmful alone

no.	gene symbol	reagent no.	two-siRNA summed score (-2 to +2)	mean protection from cisplatin (shift in death) (%)	Outcome
1	PRRX2	1	0	3.7	inactive
2	FOXP3	1	0	-0.5	inactive
3	LOC401477	1	0	10.1	inactive
4	XKR3	1	0	7.6	inactive
5	FBLN2	1	0	5.7	inactive
6	LOC399920	1	0	1.4	inactive
7	LOC441089	1	0	-1.1	inactive
8	LOC388795	1	0	6.2	inactive
9	LOC387701	1	1	15.2	inactive
10	FOXG1	1	0	4.1	inactive
11	GPT	1	0	0.9	inactive
12	PRR5	1	0	-0.9	inactive
13	TOMM22	1	0	8.5	inactive
14	UFD1	1	0	-0.8	inactive
15	GOLGA2	1	-2	-17	active
16	ASH1L	1	0	-17.3	inactive
17	HDDC3	1	0	13.7	inactive
18	CPA2	1	-1	15	inactive
19	CSPG4	1	0	-0.4	inactive
20	RBP3	1	0	0.9	inactive
21	LNPEP	1	0	5.8	inactive
22	LNPEP	2	0	21.5	inactive
23	CSDE1	1	1	15.4	inactive
24	TCEAL1	1	0	6.6	inactive
25	HORMAD2	1	0	3.2	inactive
26	LOC339562	1	0	10.2	inactive
27	LTBP4	1	1	3.5	inactive
28	LOC131873	1	0	5.1	inactive
29	SLFNL1	1	0	-0.8	inactive
30	MUC5AC	1	0	-10.9	inactive
31	ELMOD2	1	0	2	inactive
32	SLC4A9	1	2	20.1	active
33	RGS5	1	-1	-4	inactive
34	LOC442506	1	0	4.5	inactive
35	OR6C2	1	0	15.1	inactive
36	RBM15B	1	1	3.3	inactive
37	AKAP4	1	0	-0.6	inactive
38	SKP2	1	0	2.7	inactive
39	GPR82	1	1	8.2	inactive
40	LOC441826	1	0	1.8	inactive
41	TSSC4	1	1	16.9	inactive
42	LOC401891	1	1	14.2	inactive
43	RNASE11	1	0	6.3	inactive
44	C1GALT1C1	1	0	1.2	inactive
45	LOC442174	1	0	-3.9	inactive
46	RAPGEF6	1	0	11.7	inactive
47	RNF138	1	1	4.7	inactive
48	CCNT1	1	0	-7.1	inactive
49	ZNF483	1	0	4.1	inactive
50	TSPAN15	1	0	15.5	inactive
51	NCCRP1	1	0	-1.4	inactive
52	FRMD6-AS1	1	2	14.6	active
53	CIAO2B	1	0	-2	inactive
54	LOC388589	1	0	-1.4	inactive
55	GABRA2	1	0	-4.1	inactive
56	OLFML2A	1	-1	-4.4	inactive
57	LCP2	1	1	5.4	inactive
58	PROKR2	1	0	3.8	inactive
59	VCL	1	-1	-21	inactive
60	LIPT2-AS1	1	0	4.7	inactive
61	FLJ39117	1	0	8	inactive
62	COL6A3	1	0	12.8	inactive
63	LINC00470	1	0	5.8	inactive
64	AGT	1	-1	-12.9	inactive
65	LOC392188	1	0	-2.4	inactive
66	LOC149501	1	1	11.7	inactive
67	ARL6IP6	1	0	2.2	inactive
68	LOC441395	1	0	5.2	inactive
69	CACNA2D1	1	0	-11.6	inactive
70	MOSPD1	1	0	1.1	inactive
71	CDK10	1	0	2.7	inactive
72	CASR	1	0	6.4	inactive
73	TMEM255B	1	1	1.1	inactive

Hits (from the list above):
gene symbol	reagent no.	two-siRNA summed score (-2 to +2)	mean protection from cisplatin (shift in death) (%)	Outcome
GOLGA2	1	-2	-17	active
SLC4A9	1	2	20.1	active
FRMD6-AS1	1	2	14.6	active
